We go through 16 molecules from US20210206856A1.

The labels stand for the following.
B1: MAdCAM Antibody Table 2 Clone 75 (antibody, human IgG1, V domains shown)
VH: EVQLLESGGGLVQPGGSLRLSCAASGFTFSDFWMHWVRQAPGKGLEWISYISGDSGYTNYADSVKGRFTISRDNSKNTLYLQMNSLRAEDTAVYYCARDRPYYYYMDVWGKGTTVTVSS
VL: DIQMTQSPSSLSASVGDRVTITCRASQSVSRSLAWYQQKPGKAPKLLIYAASSLQSGVPSRFSGSGSGTDFTLTISSLQPEDFATYYCQQYKSYPVTFGQGTKVEIK
B2: MAdCAM Antibody Table 2 Clone 6 (antibody, human IgG1, V domains shown)
VH: EVQLLESGGGLVQPGGSLRLSCAASGFTFNNYAFHWVRQAPGKGLEWVSRINSYGTSTTYADSVKGRFTISRDNSKNTLYLQMNSLRAEDTAVYYCAREGPVAGYWYFDLWGQGTLVTVSS
VL: DIQMTQSPSSLSASVGDRVTITCRASQIIGTNLAWYQQKPGKAPKLLIYGASSLQSGVPSRFSGSGSGTDFTLTISSLQPEDFATYYCQQSYRLPFTFGQGTKVEIK
B3: MAdCAM Antibody Table 2 Clone 14 (antibody, human IgG1, V domains shown)
VH: QVQLVQSGAEVKKPGSSVKVSCKASGYTFTNYYMHWVRQAPGQGLEWMGGIIPIVDGVKYAQKFQGRVTITADESTSTAYMELSSLRSEDTAVYYCAKGQFTGNYYYGMDYWGQGTLVTVSS
VL: DIQMTQSPSSLSASVGDRVTITCQANQDISNYLNWYQQKPGKAPKLLIYRASKLEAGVPSRFSGSGSGTDFTLTISSLQPEDFATYYCQQSSEIPYSFGQGTKVEIK
B4: MAdCAM Antibody Table 2 Clone 82 (antibody, human IgG1, V domains shown)
VH: QVQLVQSGAEVKKPGASVKVSCKASGYTFTRHWIHWVRQAPGQGLEWMGWINVKTGGAGYAQKFQGRVTMTRDTSTSTVYMELSSLRSEDTAVYYCARESSGWYGTDVWGQGTTVTVSS
VL: DIQMTQSPSSLSASVGDRATITCRASQSISNYLAWYQQKPGKAPKLLIYAASSLQSGVPSRFSGSGSGTDFTLTISSLQPEDFATYYCQQSNSFPLTFGGGTKVEIK
B5: MAdCAM Antibody Table 1 Clone 9 (scFv)
scFv: EVQLLESGGGLVQPGGSLRLSCAASGFTFSDYYMNWVRQAPGKGLEWVSVIGESGGSTYYADSVKGRFTISRDNSKNTLYLQMNSLRAEDTAVYYCAADPVSRWPKHGGGDYWGQGTLVTVSSGGGGSGGGGSGGGGSGGGGSDIQMTQSPSSLSASVGDRVTITCRASQGISSSLAWYQQKPGKAPKLLIYAASTLQSGVPSRFSGSGSGTDFTLTISSLQPEDFATYYCQQSYSTPWTFGQGTKVEIK
B6: MAdCAM Antibody Table 2 Clone 84 (antibody, human IgG1, V domains shown)
VH: QVQLVQSGAEVKKPGASVKVSCKASGGTFSSSAISWVRQAPGQGLEWMGWISAYNGYTNYAQKFQGRVTMTRDTSTSTVYMELSSLRSEDTAVYYCASRVHSGGSYPDDYWGQGTLVTVSS
VL: DIQMTQSPSSLSASVGDRVTITCQASEHIYNYLNWYQQKPGKAPKLLIYAASSLQSGVPSRFSGSGSGTDFTLTISSLQPEDFATYYCQQTDSIPITFGQGTKVEIK
B7: MAdCAM Antibody Table 1 Clone 4 (scFv)
scFv: QVQLVQSGAEVKKPGASVKVSCKASGGTFSSYAISWVRQAPGQGLEWMGSINPSGDTTSYAQKFQGRVTMTRDTSTSTVYMELSSLRSEDTAVYYCAKDKAQWLVGYFDYWGQGTLVTVSSGGGGSGGGGSGGGGSGGGGSDIQMTQSPSSLSASVGDRVTITCQASQDISNSLNWYQQKPGKAPKLLIYAASSLQSGVPSRFSGSGSGTDFTLTISSLQPEDFATYYCQQSYSSVITFGQGTKVEIK
B8: MAdCAM Antibody Table 2 Clone 24 (antibody, human IgG1, V domains shown)
VH: EVQLVESGGGLVKPGGSLRLSCAASGFTFSSYWMSWVRQAPGKGLEWVSRISSDGRITTYAAPVKGRFTISRDDSKNTLYLQMNSLKTEDTAVYYCARGTSYCTGGVCDIDYWGQGTLVTVSS
VL: DIQMTQSPSSLSASVGDRVTITCRASQSIGRNLNWYQQKPGKAPKLLIYSASNLQSGVPSRFSGSGSGTDFTLTISSLQPEDFATYYCQQSYSIPLTFGPGTKVDIK
B9: MAdCAM Antibody Table 1 Clone 1 (scFv)
scFv: EVQLLESGGGLVQPGGSLRLSCAASGFTFSSYGMHWVRQAPGKGLEWVAVISDDGSDKYYADSVKGRFTISRDNSKNTLYLQMNSLRAEDTAVYYCTTSKYYYYYGMDVWGQGTTVTVSSGGGGSGGGGSGGGGSGGGGSDIQMTQSPSSLSASVGDRVTITCQASQDISKSLNWYQQKPGKAPKLLIYAASSLQSGVPSRFSGSGSGTDFTLTISSLQPEDFATYYCQQGYSTPLTFGGGTKVEIK
B10: MAdCAM Antibody Table 1 Clone 2 (scFv)
scFv: QVQLVQSGAEVKKPGASVKVSCKASGYPFIGYYLHWVRQAPGQGLEWMGIINPSGGSTSYAQKFQGRVTMTRDTSTSTVYMELSSLRSEDTAVYYCAREGRLSYGMDAWGQGTLVTVSSGGGGSGGGGSGGGGSGGGGSDIQMTQSPSSLSASVGDRVTITCRASQSISSYLAWYQQKPGKAPKLLIYGASTLESGVPSRFSGSGSGTDFTLTISSLQPEDFATYYCQQTWGPPFTFGQGTKLEIK
B11: MAdCAM Antibody Table 2 Clone 83 (antibody, human IgG1, V domains shown)
VH: EVQLLESGGGLVQPGGSLRLSCAASGFTFSSYWMHWVRQAPGKGLEWVAAISYDGKYKDYEDSVKGRFTISRDNSKNTLYLQMNSLRAEDTAVYYCARENKQWLASFDYWGQGTLVTVSS
VL: DIQMTQSPSSLSASVGDRVTITCQASQDISNFVNWYQQKPGKAPKLLIYAANLRSGVPSRFSGSGSGTDFTLTISSLQPEDFATYYCQQANSFPVTFGPGTKVDIK
B12: MAdCAM Antibody Table 2 Clone 79 (antibody, human IgG1, V domains shown)
VH: EVQLLESGGGLVKPGGSLRLSCAASGFTFDDYAMHWVRQAPGKGLEWVASITSSSAFIDYAASVKGRFTISRDDSKNTLYLQMNSLKTEDTAVYYCARERVDWNSYFDLWGRGTLVTVSS
VL: EIVMTQSPATLSVSPGERATLSCRASQGISNSYLAWYQQKPGQAPRLLIYGASTRATGIPARFSGSGSGTEFTLTISSLQSEDFAVYYCQQYYTYPPTFGPGTKVDIK
B13: MAdCAM Antibody Table 1 Clone 7 (scFv)
scFv: QVQLVQSGAEVKKPGASVKVSCKASGYTFTGYHIHWVRQAPGQGLEWMGIINPSGGSTIYAQKFQGRVTMTRDTSTSTVYMELSSLRSEDTAVYYCAKDWSSWYLGPFDYWGQGTLVTVSSGGGGSGGGGSGGGGSGGGGSDIQMTQSPSSLSASVGDRVTITCRASQNISSSLNWYQQKPGKAPKLLIYAASSLQSGVPSRFSGSGSGTDFTLTISSLQPEDFATYYCQQSYTTPYTFGQGTKVEIK
B14: MAdCAM Antibody Table 1 Clone 5 (scFv)
scFv: EVQLLESGGGLVQPGGSLRLSCAASGFTFSSYWMHWVRQAPGKGLEWVSSISPGGSNIDYADSVKGRFTISRDNSKNTLYLQMNSLRAEDTAVYYCAREVQLSHYDYWGQGTLVTVSSGGGGSGGGGSGGGGSGGGGSDIQMTQSPSSLSASVGDRVTITCRASQGISNSLAWYQQKPGKAPKLLIYGASSLQSGVPSRFSGSGSGTDFTLTISSLQPEDFATYYCQQANSFPFTFGQGTKVEIK
B15: MAdCAM Antibody Table 2 Clone 7 (antibody, human IgG1, V domains shown)
VH: EVQLLESGGGLVQPGGSLRLSCAASGFTFSDYQMSWVRQAPGKGLEWVAIISHADGGFKDYADSVKGRFTISRDNSKNTLYLQMNSLRAEDTAVYYCAKPYSSGWSAVYYFDYWGQGTLVTVSS
VL: DIQMTQSPSSLSASVGDRVTITCRASRGITNDLGWYQQKPGKAPKLLIYAASTLQSGVPSRFSGSGSGTDFTLTISSLQPEDFATYYCQQAYSFPWTFGQGTKVEIK
B16: MAdCAM Antibody Table 1 Clone 6 (scFv)
scFv: EVQLLESGGGLVQPGGSLRLSCAASGFTFNNYAFHWVRQAPGKGLEWVSRINSYGTSTTYADSVKGRFTISRDNSKNTLYLQMNSLRAEDTAVYYCAREGPVAGYWYFDLWGQGTLVTVSSGGGGSGGGGSGGGGSGGGGSDIQMTQSPSSLSASVGDRVTITCRASQIIGTNLAWYQQKPGKAPKLLIYGASSLQSGVPSRFSGSGSGTDFTLTISSLQPEDFATYYCQQSYRLPFTFGQGTKVEIK

Results are given in words; binding and its absence hold for the method and conditions named. Binding can be weak; no strength is given.

The first assay has as its target cyno MAdCAM protein (cyno). As to the kind of experiment: ELISA. (In general: An ELISA detects its analyte on a solid surface through an enzyme-linked reagent.)
Take B1: the binding entry was “binds”.

On to B2, for which the binding result is on record as “binds”.

Another assay concerns the target cyno MAdCAM protein (cyno). Nature of the assay: Octet. Background: Biolayer interferometry detects binding as a change in optical thickness at a sensor tip.
For the molecule B3, the binding result was “no binding”.

Take B1: the binding result is reported as “binds”.

As to B4, the binding entry is listed as “binds”.

For the molecule B5, the binding entry is “binds”.

Regarding B6, the binding entry is on record as “binds”.

For the molecule B7, the binding result is listed as “binds”.

Turning to B2, the binding result was “binds”.

Turning to B8, the binding entry was “no binding”.

Turning to B9, the binding result was “binds”.

Turning to B10, the binding entry is reported as “binds”.

On to B11, for which the binding entry was “binds”.

B12: the binding result is recorded as “binds”.

Turning to B13, the binding result is given as “binds”.

Regarding B14, the binding result is recorded as “binds”.

On to B15, for which the binding entry is on record as “no binding”.

Take B16: the binding entry was “binds”.
